## Library screening results

By UniProt entry, the sequences of proteins in these tests, tags left out.
UniProt E9BF75, entry or part of it: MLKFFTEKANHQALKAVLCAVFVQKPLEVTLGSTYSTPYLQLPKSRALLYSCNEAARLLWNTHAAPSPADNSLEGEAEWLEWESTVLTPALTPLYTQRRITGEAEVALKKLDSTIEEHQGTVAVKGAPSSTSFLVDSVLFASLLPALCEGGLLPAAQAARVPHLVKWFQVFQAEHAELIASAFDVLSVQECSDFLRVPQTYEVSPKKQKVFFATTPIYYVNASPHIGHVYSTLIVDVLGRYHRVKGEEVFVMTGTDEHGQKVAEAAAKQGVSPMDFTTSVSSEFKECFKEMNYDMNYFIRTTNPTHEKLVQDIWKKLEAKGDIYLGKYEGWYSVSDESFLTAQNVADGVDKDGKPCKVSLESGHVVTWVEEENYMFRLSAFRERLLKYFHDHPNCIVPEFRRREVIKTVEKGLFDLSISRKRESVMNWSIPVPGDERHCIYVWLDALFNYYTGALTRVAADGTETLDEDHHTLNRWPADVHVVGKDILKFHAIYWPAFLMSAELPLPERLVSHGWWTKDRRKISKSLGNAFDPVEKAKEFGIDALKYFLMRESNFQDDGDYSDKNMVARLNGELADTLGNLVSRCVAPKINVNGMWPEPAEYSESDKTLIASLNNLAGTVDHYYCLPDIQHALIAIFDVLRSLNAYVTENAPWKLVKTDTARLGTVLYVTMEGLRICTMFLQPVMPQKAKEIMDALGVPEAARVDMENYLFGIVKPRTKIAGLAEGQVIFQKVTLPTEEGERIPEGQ

From ChEMBL document CHEMBL3988442, “University of Dundee, Small-Polar-MMV Screening Library” (2021).

Mtb heat-shock: 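Assay on Mycobacterium tuberculosis, filed only as a heat shock assay from Cornell; the read-out is not stated. The concentration is filed as 10 mM, unlikely as a test dose, so the dose is not known. Higher reads as stronger inhibition (inferred: compounds with an IC50 in retests scored well above the rest). Size under these conditions: about 69,000 compounds, about 930 of them at 50% or above in at least one test.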
Mtb growth Cornell: 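Whole-cell assay for inhibitors of Mycobacterium tuberculosis growth, labelled Cornell in the record; the read-out is not stated. The concentration is filed as 10 mM, unlikely as a test dose, so the dose is not known. Higher means stronger inhibition (inferred from two other growth screens of the library). Size under these conditions: about 53,000 compounds, about 900 of them at 50% or above in at least one test.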
LdMetRS: 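Methionyl-tRNA synthetase (putative), Leishmania donovani (UniProt E9BF75). Primary screen of methionyl-tRNA synthetase; the read-out is not stated. The test concentration is not given. Values are per cent inhibition. About 68,000 compounds were tested under these conditions; 0.035% (about 24) showed 50% or more at least once.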

All values are in %. The controls that fix the scale are not given in the record; negative values are as filed. This is an unselected part of the compounds tested. A dash means the value is not listed here; it may have been measured.

With CS(=O)(=O)N1CCC2(CCN(C(=O)c3cccs3)CC2)CC1 the screen gave Mtb heat-shock: 28.28%; Mtb growth Cornell: -0.5703%; LdMetRS: 11.14%. With CCc1nnc2n1CCN(C(=O)c1cc3cc(F)ccc3[nH]1)C2 the screen gave Mtb heat-shock: 24.5%; Mtb growth Cornell: 2.915%; LdMetRS: 18.22%. For O=C(Nc1cn[nH]c1)N1CCCCCC1c1ccncc1 (stereo not shown) the result was Mtb heat-shock: 19.25%; Mtb growth Cornell: 20.87%; LdMetRS: 20%. For O=C(NC[C@H]1OC[C@@H](NC2COC2)[C@@H]1O)c1cccs1 the result was Mtb heat-shock: -7.911%; LdMetRS: 10.44%. For [H][C@@]12CCNCC1OCCN2C(=O)c1ccccc1 (stereo partly shown) the result was Mtb heat-shock: 26.04%; Mtb growth Cornell: 4.486%. With Cc1occc1C(=O)N1CCC2(CCN(Cc3nccs3)C2)CC1 the screen gave LdMetRS: 5.512%. Cn1nccc1C(=O)Nc1cc(C(F)(F)F)c[nH]c1=O read Mtb heat-shock: -4.095%; LdMetRS: 17.37%.

For CN(CC1CCOCC1)C(=O)NCCCN1CCCCC1 the result was Mtb heat-shock: -12.46%; LdMetRS: 7.459%. CC(NC(=O)Nc1nncs1)C(=O)NC1CCCC1 (stereo not shown) read Mtb heat-shock: 7.345%; Mtb growth Cornell: -16.1%; LdMetRS: 16.67%. Result for Cc1[nH]c2c(C)ccc(C)c2c1CC(=O)NC1CCCNC1=O (stereo not shown) was Mtb heat-shock: 0.9458%; LdMetRS: 13.17%. COCC(=O)N1CCCC1c1nccnc1Nc1ncccn1 (stereo not shown) read Mtb heat-shock: -9.898%; LdMetRS: 12.47%. With CNc1cccc(C2CCCN(C(=O)c3cccnc3)C2)n1 (stereo not shown) the screen gave Mtb heat-shock: -36.65%; Mtb growth Cornell: -36.03%; LdMetRS: 11.86%. Result for O=C(c1occc1CN1C(=O)Cc2ccccc21)N1CCCCCC1 was Mtb heat-shock: 5.583%; Mtb growth Cornell: 26.17%; LdMetRS: 17.01%. With CC(C)CCn1ccc(NC(=O)N2CCCC2C(C)(C)O)n1 (stereo not shown) the screen gave Mtb heat-shock: -1.585%; Mtb growth Cornell: 2.302%; LdMetRS: 9.561%.

CC(C)c1cc(NCc2csc(N(C)C)n2)nc(N)n1 read Mtb heat-shock: -140.8%; LdMetRS: 20.24%. CCCS(=O)(=O)N1CC[C@H]2OCC[C@@]2(c2nnc(C)o2)C1 read LdMetRS: 1.46%. Cc1c(C)n2c(SCC(=O)N3CCOCC3)nnc2[nH]c1=O read Mtb heat-shock: 2.871%; Mtb growth Cornell: 27.41%; LdMetRS: 6.475%. COc1ccc2c(c1)C(NCCc1ncc(C)s1)CCCO2 (stereo not shown) read Mtb heat-shock: -22.76%; Mtb growth Cornell: 24.42%; LdMetRS: 11.68%. With O=C(O)C(F)(F)F.O=C(O)C(F)(F)F.[H][C@]12CCN(c3ccccc3)C[C@@]1([H])OCCN(Cc1ccncc1)C2 the screen gave Mtb heat-shock: -14.49%; Mtb growth Cornell: -30.17%. Cc1ccc(C(=O)Cc2c(Cl)nc3n(C)c(=O)n(C)c(=O)n23)cc1 gave Mtb heat-shock: 2.312%; Mtb growth Cornell: -26.46%; LdMetRS: 13.44%. Result for CCC(CN1CCCC1)NC(=O)Cc1c(C)[nH]c2c(C)cc(C)cc12.O=C(O)CC(O)(CC(=O)O)C(=O)O (stereo not shown) was Mtb heat-shock: -29.11%; Mtb growth Cornell: -14.29%.

For CCc1cnc(N)nc1N1CCCC2(CCOCC2)C1 the result was Mtb heat-shock: -32.98%; Mtb growth Cornell: 18.97%; LdMetRS: 8.219%. For O=C(Cn1ncc2c(c1=O)CCCC2)Nc1cccc2[nH]ccc12 the result was Mtb heat-shock: 1.763%; Mtb growth Cornell: 23.19%; LdMetRS: 18.77%. O=C1NCCO[C@H]2CN(C(=O)Cc3ccco3)CC[C@@H]12 gave LdMetRS: 11.2%. Cc1nn(C)c(C)c1CN(C)C1CCN(c2ncnc3[nH]cnc23)CC1 gave Mtb heat-shock: -13.13%; Mtb growth Cornell: -40.86%; LdMetRS: 2.452%. Result for CO[C@@H]1CCN(Cc2nccs2)C[C@@H]1Cc1ccccc1 was LdMetRS: 17.46%. Result for CC(=O)N1C[C@@H](c2ccsc2)[C@@H]2CN(Cc3ccccc3Cl)CC[C@@H]21 was LdMetRS: 16.26%. Result for CCN1CC[C@]2(CN(Cc3nccs3)C[C@H]2c2ccccc2)C1=O.O=C(O)C(F)(F)F was Mtb heat-shock: 3.33%; Mtb growth Cornell: 7.363%.

With COc1cccc2[nH]cc(CCNC(=O)N3CCOCC3C3CC3)c12 (stereo not shown) the screen gave Mtb heat-shock: -1.067%; Mtb growth Cornell: 49.15%; LdMetRS: 13.46%. With Cc1noc(C(C)N2CCN(Cc3ccco3)CC2)n1 (stereo not shown) the screen gave Mtb heat-shock: -0.3275%; Mtb growth Cornell: -5.266%; LdMetRS: 23.43%. NC(=O)CN1CCC(OCc2ccc(Cl)c(Cl)c2)CC1 gave Mtb heat-shock: 10.29%; Mtb growth Cornell: -38.52%; LdMetRS: 20.12%. With CCOc1ccc(Cl)cc1C1CCCN1 (stereo not shown) the screen gave LdMetRS: 13.38%. With CC(=O)N1CCC(N2CCOC[C@H]2c2nc(C(C)(C)C)c[nH]2)CC1 the screen gave Mtb heat-shock: 3.018%; Mtb growth Cornell: 18.47%; LdMetRS: 12.54%. With CCc1nnc(N2CCN(c3ccccc3)C(=O)C2)o1 the screen gave Mtb heat-shock: 13.28%; Mtb growth Cornell: -27.61%; LdMetRS: 18.44%.

Once more, the final 3:

| SMILES | Mtb heat-shock | Mtb growth Cornell | LdMetRS |
|---|---|---|---|
| `CCOc1ccc(Cl)cc1C1CCCN1` (stereo not shown) | - | - | 13.38% |
| `CC(=O)N1CCC(N2CCOC[C@H]2c2nc(C(C)(C)C)c[nH]2)CC1` | 3.018% | 18.47% | 12.54% |
| `CCc1nnc(N2CCN(c3ccccc3)C(=O)C2)o1` | 13.28% | -27.61% | 18.44% |